Experimental data from PubChem BioAssay AID504444 (National Center for Advancing Translational Sciences (NCATS), 2011).
The whole screen tested about 360,000 compounds, of which about 7,500 (2.1%) were called active. The inconclusive results got no clear call from the source; some entries with a clear call stand among them for comparison. The call rests on the fitted dose curve; in most records, active means well fitted inhibition curve with a large enough effect; inconclusive means small, poorly fitted or top-dose-only effect, or effect the other way; inactive means flat fitted curve, though single readings scatter. A potency beside an inconclusive call is a rough fit, not a confirmed value.

Assay: Nrf2 qHTS screen for inhibitors; further: nearly all actives have a fitted effect of over 60% in size
Conditions: A549 ARE-Fluc reporter, luciferase luminescence, 18-24 h; activity change, negative = inhibition: at 46 µM (top of the series)
How it was run: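 Nrf2 function is reported as luminescence of an ARE-controlled luciferase in A549 cells. Compounds were tested at several concentrations, and a CellTiter-Fluor read on the same wells flagged cytotoxicity.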
On the % scale 0 is the no-effect control and ±100 the full control effect; potency means the concentration at half of the fitted maximal effect.

Question: With `CCN(c1ccccc1)c1nnc(NC(=O)Nc2cccc(Cl)c2C)s1` as the compound, how does the “activity change, negative = inhibition” value read?
Answer: inactive: -2.23%

Question: Which “activity change, negative = inhibition” value does the source give for `CC(=O)c1ccc(NC(=O)Nc2nnc(N3CCCC(C)C3)s2)cc1` (configuration not stated) here?
Answer: inactive: 24.8%

Question: Which Potency does the source give for `Cc1ccccc1-n1c(=O)cc(N2CCc3ccccc32)[nH]c1=O` here?
Answer: inconclusive: 0.0046 µM [falling, full curve, poor fit]

Question: Which Potency does the source give for `Nc1ccc2nc(N3CCOCC3)sc2c1` here?
Answer: inconclusive: 23.1 µM [activator, single point]

Question: With `CSc1ccc(-c2nc3ncccn3c2Nc2ccc(C)c(C)c2)cc1` as the compound, how does the “activity change, negative = inhibition” value read?
Answer: inactive: -23.5%

Question: Which Potency does the source give for `Cc1ccc(C(=O)Nc2nc(C)c(C(=O)Nc3ccc4c(c3)CCC4)s2)cc1` here?
Answer: inconclusive: 9.2 µM [activator, partial curve]

Question: With `COc1ccc(CC(=O)NCc2cccs2)cc1` as the compound, how does the Potency read?
Answer: inconclusive: 20.6 µM [activator, partial curve, poor fit]

Question: Which Potency does the source give for `COc1cc(OC)cc(C(=O)NCCN2C(=O)S/C(=C\c3cccs3)C2=O)c1` here?
Answer: inconclusive: 23.1 µM [falling, single point]

Question: With `COC(=O)c1ccc(/C=C2\N=C(SC)SC2=O)cc1` as the compound, how does the Potency read?
Answer: inconclusive: 16.4 µM [activator, partial curve, poor fit]

Question: With `CC1(C)CC(=O)C(C(c2ccc(F)cc2)C2C(=O)CC(C)(C)CC2=O)C(=O)C1` as the compound, how does the “activity change, negative = inhibition” value read?
Answer: inactive: 15%

Question: Which Potency does the source give for `CCN(CC)C(=O)c1sc(NC(=O)C(C)Sc2nc(-c3ccccc3)cc(C(F)(F)F)n2)c(C(=O)OC)c1C` (configuration not stated) here?
Answer: inconclusive: 20.6 µM [falling, single point]

Question: For `CCCCn1c(NC(=S)Nc2ccccc2)nc2ccccc21`, which Potency is on record?
Answer: inconclusive: 29.1 µM [activator, single point]

Question: With `Cc1oc(-c2cccc3ccccc23)nc1CN1CCN(c2ncnc3ccccc23)CC1` as the compound, how does the Potency read?
Answer: active: 18.4 µM

Question: For `COc1ccc(Br)cc1CN(C)C(=O)Cc1ccc(OC)c(S(=O)(=O)N2CCOCC2)c1`, which Potency is on record?
Answer: active: 8.2 µM

Question: Which Potency does the source give for `CCc1ccc(NC(=O)c2ccc(-n3cncn3)c([N+](=O)[O-])c2)cc1` here?
Answer: inconclusive: 20.6 µM [falling, partial curve, poor fit]

Question: With `COC(=O)c1ccccc1NC(=O)CCC(=O)N1CCOc2ccccc21` as the compound, how does the Potency read?
Answer: inconclusive: 29.1 µM [falling, single point]

Question: With `CCC1=Nc2cc(C(=O)NCCCN3CCOCC3)ccc2Sc2ccccc21` as the compound, how does the “activity change, negative = inhibition” value read?
Answer: inactive: -6.14%

Question: With `COc1ccccc1Cn1ccn(Cc2c(F)cccc2Cl)c(=O)c1=O` as the compound, how does the Potency read?
Answer: inconclusive: 29.1 µM [falling, single point]

Question: With `Cc1c(C(=O)NCCSCc2ccccc2)cccc1[N+](=O)[O-]` as the compound, how does the Potency read?
Answer: inconclusive: 23.1 µM [falling, partial curve, poor fit]

Question: Which Potency does the source give for `COc1cc(NC(=O)c2ccccc2OCc2ccccc2)cc(OC)c1OC` here?
Answer: inconclusive: 29.1 µM [falling, single point]

Question: For `CCn1nc(C)c(NC(=O)CSc2nnc(-c3ccco3)n2C)c1C`, which Potency is on record?
Answer: inconclusive: 0.259 µM [falling, partial curve, poor fit]

Question: For `O=C(CSc1nnc(-c2cccnc2)s1)Nc1ccnc2ccccc12`, which Potency is on record?
Answer: active: 4.11 µM

Question: With `Cc1cccc(C(=O)N[C@H](C(=O)Nc2nnc(C3CC3)s2)C(C)C)c1` as the compound, how does the “activity change, negative = inhibition” value read?
Answer: inactive: 0.594%

Question: Which “activity change, negative = inhibition” value does the source give for `COc1ccc(C2=NN(c3ccc(C=O)cc3)C(c3ccccc3)C2)cc1` (configuration not stated) here?
Answer: inactive: -21.5%

Question: For `S=C(NCc1ccccn1)Nc1cccc(Cl)c1`, which Potency is on record?
Answer: inconclusive: 29.1 µM [activator, single point]

Question: With `COc1ccc(N2CC(C(=O)Nc3cc(C)ccn3)CC2=O)cc1` (configuration not stated) as the compound, how does the Potency read?
Answer: inconclusive: 32.6 µM [falling, partial curve, poor fit]

Question: Which Potency does the source give for `COc1ccc(NC(C)C(=O)N/N=C/c2ccccc2OCc2cccc(Br)c2)cc1` (configuration not stated) here?
Answer: inconclusive: 5.17 µM [activator, full curve, poor fit]

Question: For `COc1ccc(OC)c(-c2csc(NC(=O)C3=COCCO3)n2)c1`, which “activity change, negative = inhibition” value is on record?
Answer: inactive: 11.3%

Question: Which Potency does the source give for `COc1ccc(/C=C2\Sc3ccc(C(=O)NC4CC4)cc3N(C)C2=O)cc1OC` here?
Answer: inconclusive: 29.1 µM [falling, single point]

Question: With `O=C(CN1C(=O)NC2(CCCC2)C1=O)NCCN1C(=O)S/C(=C\c2ccccc2F)C1=O` as the compound, how does the Potency read?
Answer: inconclusive: 25.9 µM [falling, partial curve, poor fit]

Question: With `CCOCc1c(C(=O)OCC(=O)NCc2ccc(F)cc2)oc2ccccc12` as the compound, how does the “activity change, negative = inhibition” value read?
Answer: inactive: -0.154%

Question: For `c1ccc2nc3[nH]cnc3nc2c1`, which “activity change, negative = inhibition” value is on record?
Answer: inactive: 2.92%

Question: For `CCCSc1nsc(NC(=O)Nc2ccc(F)cc2F)n1`, which Potency is on record?
Answer: inconclusive: 20.6 µM [falling, single point]

Question: For `CCOc1ccccc1C=C1SC(=S)NC1=O`, which Potency is on record?
Answer: inconclusive: 20.6 µM [falling, partial curve, poor fit]

Question: Which Potency does the source give for `CCOCCCNC(=O)c1cc2c(-c3ccc(OC)c(OC)c3)nn(C)c2s1` here?
Answer: inconclusive: 29.1 µM [falling, single point]

Question: With `CCC(=O)Nc1cccc(-c2nnc(-c3cccc(NC(=O)CC)c3)o2)c1` as the compound, how does the Potency read?
Answer: inconclusive: 32.6 µM [falling, single point]

Question: For `Cc1cc(C2C(C#N)=C(N)Oc3n[nH]c(C)c32)c(C)s1` (configuration not stated), which “activity change, negative = inhibition” value is on record?
Answer: inactive: -2.99%

Question: For `CCOc1ccc(CCNC(=O)c2cccc(S(=O)(=O)N3CCOCC3)c2)cc1OCC`, which Potency is on record?
Answer: inconclusive: 9.2 µM [falling, partial curve]

Question: With `O=C(NCCCNCc1ccccc1)/C(=N\O)c1ccccc1` as the compound, how does the “activity change, negative = inhibition” value read?
Answer: inactive: 10.2%

Question: With `CN(Cc1nc2ccccc2c(=O)[nH]1)C(=O)c1cccc(NC(=O)c2cccs2)c1` as the compound, how does the Potency read?
Answer: inconclusive: 25.9 µM [falling, partial curve]

Question: Which Potency does the source give for `O=C1CSC(=S)N1/N=C/c1ccc2c(c1)OCCO2` here?
Answer: inconclusive: 6.51 µM [activator, full curve, poor fit]

Question: With `COc1ccc(C(=O)OC2CCN(c3ncc(C(F)(F)F)cc3Cl)CC2)cc1` as the compound, how does the Potency read?
Answer: inconclusive: 7.31 µM [falling, partial curve]

Question: For `Cc1ccc(S(=O)(=O)N2CCC(C(=O)Nc3ccc(S(=O)(=O)N4CCOCC4)cc3)CC2)cc1`, which Potency is on record?
Answer: inconclusive: 20.6 µM [falling, partial curve, poor fit]

Question: For `CC1CCN(C(=O)c2cc3ccccc3o2)CC1`, which Potency is on record?
Answer: inconclusive: 11.6 µM [activator, partial curve]

Question: For `COc1ccc(S(=O)(=O)N2Cc3ccccc3CC2C(=O)N2CCOCC2)cc1OC` (configuration not stated), which Potency is on record?
Answer: inconclusive: 29.1 µM [activator, partial curve, poor fit]

Question: With `NC(=N\N=Cc1ccccc1)/C(N)=N/N=Cc1ccccc1` as the compound, how does the “activity change, negative = inhibition” value read?
Answer: inactive: 4.37%

Question: For `O=C(Nc1ccc2c(c1)OCO2)C(c1ccccc1)N1CCN(C(=O)c2ccco2)CC1` (configuration not stated), which Potency is on record?
Answer: inconclusive: 23.1 µM [activator, partial curve, poor fit]

Question: Which Potency does the source give for `CN(C)S(=O)(=O)c1cccc(NC(=O)c2cccc(NS(=O)(=O)c3ccccc3)c2)c1` here?
Answer: active: 14.6 µM

Question: Which Potency does the source give for `Cc1ccc(NC(=S)NC(=O)c2cccs2)cc1F` here?
Answer: inconclusive: 6.51 µM [activator, partial curve]

Question: With `COn1c(SCc2ccc(Cl)cc2)nc2ccccc2c1=O` as the compound, how does the Potency read?
Answer: inconclusive: 16.4 µM [falling, single point]

Question: Which Potency does the source give for `CCS(=O)(=O)c1ncc(Cl)c(C(=O)N2CCN(c3cccc(Cl)c3)CC2)n1` here?
Answer: active: 23.1 µM

Question: With `Cc1ccc(C(=O)NCCSC(C)(C)C)cc1[N+](=O)[O-]` as the compound, how does the Potency read?
Answer: inconclusive: 7.31 µM [activator, partial curve, poor fit]

Question: With `COc1ccc(C(=O)NNC2=C(C(=O)C(F)(F)F)CCC2)cc1` as the compound, how does the Potency read?
Answer: inconclusive: 18.4 µM [falling, single point]

Question: Which Potency does the source give for `C#CCOCCOCCOCCNc1nc(N2CCOCC2)nc(N2CCN(C(=O)CCCCCCCCCCNC(=O)[C@@H]([C@H](C)O)n3cc(C)nn3)CC2)n1` here?
Answer: inconclusive: 20.6 µM [falling, single point]

Question: Which Potency does the source give for `CC(C)CNC(=O)CSc1nnc(-c2cccc(S(=O)(=O)N3CCCCC3)c2)o1` here?
Answer: inconclusive: 14.6 µM [falling, partial curve, poor fit]

Question: With `O=C(Nc1ccc2c(c1)OCO2)c1ccccn1` as the compound, how does the Potency read?
Answer: inconclusive: 1.84 µM [activator, full curve]

Question: For `CCN(CC)S(=O)(=O)c1cc(OC)ccc1N=Nc1ccc(O)c2ncccc12`, which Potency is on record?
Answer: inconclusive: 29.1 µM [falling, single point]

Question: Which Potency does the source give for `Cc1cc(-c2ccc(C)c(S(=O)(=O)N(C)c3ccc(C)c(C)c3)c2)on1` here?
Answer: inconclusive: 23.1 µM [falling, partial curve, poor fit]

Question: Which Potency does the source give for `CC(C)(C)C(=O)NCCCNc1ccc([N+](=O)[O-])cc1` here?
Answer: inconclusive: 18.4 µM [activator, partial curve, poor fit]

Question: Which Potency does the source give for `Cc1ccc(S(=O)(=O)N2CCOCC2)cc1NC(=O)CN1CCN(c2ccc(O)cc2)CC1` here?
Answer: inconclusive: 2.06 µM [activator, full curve]

Question: With `COC(=O)c1ccc(NCC(=O)c2ccccc2)cc1` as the compound, how does the Potency read?
Answer: inconclusive: 29.1 µM [activator, single point]

Question: With `Cc1cc(C)n(-c2ccc(C(C)C)cc2)c(=O)c1C#N` as the compound, how does the Potency read?
Answer: inconclusive: 5.17 µM [falling, full curve]

Question: With `CCOC(=O)c1c(Oc2ccc(OC)cc2)nnc(-c2ccccc2)c1-c1ccccc1` as the compound, how does the Potency read?
Answer: inconclusive: 29.1 µM [falling, single point]

Question: For `COc1cccc(CNCC(O)(c2ccc(Cl)cc2)c2ccc(Cl)cc2)c1`, which Potency is on record?
Answer: inconclusive: 29.1 µM [falling, single point]

Question: For `Cc1oc(-c2ccccc2)nc1Cn1cccc1C1=NC(c2ccccc2)CO1` (configuration not stated), which Potency is on record?
Answer: active: 20.6 µM

Question: With `COc1ccc(C(=O)c2sc(Nc3cccc(OC)c3)c(C(=O)Nc3cccc(C)c3C)c2N)cc1` as the compound, how does the Potency read?
Answer: active: 23.1 µM

Question: With `COc1ccc(N(Cc2cccs2)C(=O)Nc2ccccc2)cc1` as the compound, how does the “activity change, negative = inhibition” value read?
Answer: inactive: 2.65%
